In PubChem BioAssay AID493014 (National Center for Advancing Translational Sciences (NCATS), 2011):
The list shows a part of the results. The main result of the screen is listed elsewhere. These columns were measured beside it and carry no call. The list favours compounds with an active or inconclusive main result. Potencies come from curve fits of mixed quality, noted in brackets.

Assay: qHTS Assay to Find Inhibitors of Chronic Active B-Cell Receptor Signaling
Conditions: ABC-DLBCL IkBa-CBG/CBR reporter, luminescence ratio (green luciferase fused to IkBa over red control in TMD8 lymphoma cells), 4 h
Summary of the method: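 TMD8 ABC-DLBCL cells carrying doxycycline-inducible green luciferase fused to IkappaBalpha plus unfused red luciferase were exposed to compounds (up to 46 uM) for 4 hrs at 37C. Activity came from the overlap-corrected green/red luminescence ratio.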

[1] = measured here: CBR red luminescence, cell number
[2] = measured here: IkBa-CBG green luminescence

Structure (SMILES) | AC50 [1] | AC50 [2]
CCCC[C@@H](CNC)NC[C@H](NCCCCC1CCCCC1)C(C)C | 10 µM [falling, partial curve, poor fit] | –
C=CCn1c(=NC(=O)C2COc3ccccc3O2)sc2cc(S(N)(=O)=O)ccc21 (configuration not stated) | 3.66 µM [rising, full curve, poor fit] | –
Cc1c(CC(=O)NCCC(=O)O)c(=O)oc2cc3oc4c(c3cc12)CCCC4 | 22.4 µM [falling, single point] | –
CCOC(=O)CNC(=O)c1sc(NC(=O)c2ccccc2)nc1C | 13 µM [falling, partial curve] | –
COc1ccc(-n2c(COc3ccccc3)nnc2SCc2ccc(C#N)cc2)cc1 | 9.2 µM [falling, partial curve] | –
O=C(O)c1ccc2c(c1)C(=O)N(c1ccc([N+](=O)[O-])cn1)C2=O | 20 µM [falling, single point] | –
COc1ccccc1OCCCN1C(=O)C(=O)c2cccc(C)c21 | – | 17.8 µM [falling, partial curve]
CSc1cccc(NC(=O)C2CCN(S(=O)(=O)c3ccc4c(c3)NC(=O)CO4)CC2)c1 | 35.5 µM [falling, single point] | –
O=C(O)C1C2CCC(C2)C1C(=O)NCc1ccccn1 (configuration not stated) | 3.55 µM [rising, partial curve, poor fit] | –
Cc1ccccc1CSc1nnc2[nH]c(=O)cc(C)n12 | 17.8 µM [rising, partial curve, poor fit] | –
O=S(=O)(NCc1cn2ccccc2n1)c1ccccc1F | 35.5 µM [rising, single point] | –
Cc1cc(C(=O)Nc2nc3ccc(S(C)(=O)=O)cc3s2)c(C)o1 | 0.13 µM [falling, full curve, poor fit] | –
COc1cc(Cl)c(C)cc1NC(=O)CSc1nnc(-c2cccnc2)n1Cc1ccco1 | 35.5 µM [falling, single point] | –
O=C(OCCc1cc2ccccc2c(=O)o1)c1ccco1 | 9.2 µM [rising, partial curve] | –
CCC(c1nnnn1Cc1ccco1)N(CCc1ccccc1)Cc1cc2ccc(OC)cc2[nH]c1=O (configuration not stated) | 35.5 µM [falling, partial curve, poor fit] | –
c1ccc(-n2ncc3c(NC4CCCCCC4)ncnc32)cc1 | 7.08 µM [falling, partial curve, poor fit] | –
CCN(CC)C(=O)c1cc(Cl)ccn1 | 11.2 µM [rising, single point] | –
O=C(N/N=C/c1cccnc1)c1cc(-c2ccc(Br)cc2)nc2ccccc12 | 17.8 µM [rising, single point] | –
O=C(NC(Cc1ccccc1)C(=O)O)c1ccccc1 (configuration not stated) | 35.5 µM [falling, partial curve, poor fit] | –
COc1ccc(C(=O)CCN2CCc3cc(OC)c(OC)cc3C2)cc1 | 14.1 µM [falling, partial curve] | –
O=C(Nc1cccc2cccnc12)c1ccc(Cl)cc1 | 22.4 µM [falling, partial curve] | –
Cc1ccc(C)c(CN2CCNC2=O)c1 | 0.0891 µM [rising, full curve, poor fit] | –

Structure (SMILES) | AC50 [1] | AC50 [2]
O=c1c2ccccc2nc(-c2cccc(Cl)c2)n1O | 16.4 µM [falling, partial curve] | –
CC1C(=O)N2CCCc3cc(S(=O)(=O)Nc4ccccc4F)cc1c32 (configuration not stated) | 2.06 µM [rising, partial curve] | –
CCN(CC)C(=O)c1cc2c(=O)oc3ccccc3c2s1 | 29.1 µM [falling, single point] | –
O=C(NCCCCO)C(F)(F)C(F)(F)C(F)(F)C(=O)NCCCCO | 35.5 µM [falling, single point] | –
O=C(Nc1ccccc1C(=O)N1CCOCC1)c1cc2ccccc2o1 | 7.08 µM [falling, partial curve, poor fit] | –
CC(C)n1c(=S)[nH]c2ccccc21 | 16.4 µM [rising, single point] | –
O=C(Nc1nc2ccccc2[nH]1)c1cc2ccccc2o1 | 0.501 µM [falling, full curve] | –
Cc1ccc(CONC(=O)c2ccc(Cl)cc2)cc1 | 5.8 µM [falling, full curve] | –
COC(=O)c1ccc(N=Cc2c(-c3ccccc3)[nH][nH]c2=O)cc1 | 11.2 µM [falling, partial curve, poor fit] | –
CC(C)Cn1c(CCC(=O)O)ccc1-c1cccs1 | 4.61 µM [rising, single point] | –
Cc1ccc(/C=C2/SC(=S)N(c3ccc(S(=O)(=O)Nc4nccs4)cc3)C2=O)cc1 | 12.6 µM [falling, partial curve] | –
O=C(/C=C/c1ccccc1)c1ccc2c3c(cccc13)CC2 | 0.231 µM [rising, partial curve] | –
O=C(CCC(=O)Nc1ccccc1)NNS(=O)(=O)c1ccc(Cl)cc1 | 0.891 µM [falling, full curve] | –
C/C(=N\NC(=O)c1ccc(Cn2cc(Br)cn2)o1)c1cccc(NC(=O)C(C)C)c1 | 11.6 µM [falling, single point] | –
CCCc1ccc(-c2cc(C(=O)NN3CCOCC3)c3ccccc3n2)cc1 | 1.26 µM [falling, full curve, poor fit] | –
O=C(Cn1ncc2c3ccccc3n(Cc3ccccc3)c2c1=O)NCCCN1CCCC1=O | 14.1 µM [falling, single point] | –
CCN(CC)c1ccc(N=Nc2ncn[nH]2)cc1 | 14.1 µM [rising, partial curve, poor fit] | –
O=C(Nc1sc2c(c1-c1nc3ccccc3[nH]1)CCCC2)C1CCCC1 | 11.2 µM [falling, partial curve, poor fit] | –
COc1cccc(/C=N/NC(=O)c2cccc(N3CCCC3=O)c2)c1 | 11.2 µM [falling, partial curve] | –
COc1ccccc1OCCNC1CCCC1 | 0.0731 µM [falling, full curve, poor fit] | –
Cn1c2ccccc2c2c(C(=O)O)cn(C3CCCC3)c(=O)c21 | 29.1 µM [falling, single point] | –
Cc1ccc(C)c(NC(=O)C2CCN(C(=O)c3cccs3)CC2)c1 | 7.94 µM [rising, partial curve] | –

Structure (SMILES) | AC50 [1] | AC50 [2]
Cc1cccc(NC(=O)/C=C/c2ccc([N+](=O)[O-])s2)c1 | 3.66 µM [falling, partial curve] | –
CCCn1c2ccccc2c2cnn(CC(=O)N(CC)CC)c(=O)c21 | 3.55 µM [rising, full curve, poor fit] | –
N=C1SCC(=O)N1c1ncc(Cc2ccc(F)cc2)s1 | 3.16 µM [rising, partial curve, poor fit] | 4.47 µM [falling, single point]
CCCn1c(=N)n(CC(=O)c2ccc([N+](=O)[O-])cc2)c2ccccc21 | 3.98 µM [rising, single point] | –
CC(=O)NC1C(c2nc3ccccc3s2)=C(c2ccccc2)C(=O)N1c1ccc(C)cc1 (configuration not stated) | 0.411 µM [rising, full curve, poor fit] | –
O=C(NNC(=S)Nc1ccccc1)c1ccncc1 | 8.91 µM [falling, partial curve] | –
CCOc1ccc2ccccc2c1C(=O)NCC(c1ccc(N(C)C)cc1)N(C)C (configuration not stated) | 2.82 µM [rising, partial curve, poor fit] | –
Cn1ccs/c1=N\C(=O)Nc1cccc(C(F)(F)F)c1 | 35.5 µM [falling, single point] | –
O=C(Nc1cccn(Cc2cccc(F)c2)c1=O)NC1CCCCC1 | 35.5 µM [falling, single point] | –
Brc1ccc(-c2csc(N3CCCCCC3)n2)cc1 | 0.708 µM [falling, full curve, poor fit] | –
O=C1CCc2ccc(NS(=O)(=O)c3ccc(F)cc3)cc2N1 | 20 µM [falling, single point] | –
Cc1ccccc1CSCCNC(=O)Nc1ccccc1 | 35.5 µM [falling, single point] | –
Clc1ccc(OCCn2cnc3ccccc32)c(Cl)c1 | 1.64 µM [rising, partial curve, poor fit] | –
N/C(COc1cccc(C(F)(F)F)c1)=N\NC(=O)c1cccnc1Oc1ccccc1 | 35.5 µM [falling, single point] | –
Cc1ccc(NS(=O)(=O)c2cccc(C(=O)NCCc3c[nH]c4ccccc34)c2)c(C)c1 | 20.6 µM [falling, single point] | –
CCC(=O)NC(c1ccc(Cl)cc1Cl)c1ccc2cccnc2c1O (configuration not stated) | 20 µM [falling, partial curve] | –
CN(C)C(=O)Cn1c(SCC(=O)NCc2ccc3c(c2)OCO3)nc2ccccc21 | 0.0231 µM [rising, full curve, poor fit] | –
COc1ccc(NC(=O)C(=O)N/N=C(\C)CC(=O)Nc2ccccn2)c(OC)c1 | 8.91 µM [falling, partial curve, poor fit] | –
C/C(=N\OCc1ccccc1C#N)c1cc2ccccc2o1 | 1.26 µM [rising, full curve, poor fit] | –
Cc1cc(C(=O)C(C)OC(=O)c2cnccn2)c(C)n1-c1ccccc1 (configuration not stated) | 29.1 µM [falling, single point] | –
COc1ccc(/C=C/C(=O)Nc2ccccc2C(=O)N2CCCC2)cc1 | 11.2 µM [falling, single point] | –
O=C(Nc1cccc(S(=O)(=O)N2CCCCC2)c1)c1cncc(Br)c1 | 5.8 µM [falling, single point] | –

Compounds listed so far containing a CF3 group:
Structure (SMILES) | AC50 [1] | AC50 [2]
Cn1ccs/c1=N\C(=O)Nc1cccc(C(F)(F)F)c1 | 35.5 µM [falling, single point] | –
N/C(COc1cccc(C(F)(F)F)c1)=N\NC(=O)c1cccnc1Oc1ccccc1 | 35.5 µM [falling, single point] | –
